According to the supplement of paper PMC10849652:
This is one part of the list.

Protein sequences, listed by entry. Tags and fused reporters are not part of them. Lines headed by an entry give the natural chain unless they say otherwise; changes in a name come on top.
UniProt O95218: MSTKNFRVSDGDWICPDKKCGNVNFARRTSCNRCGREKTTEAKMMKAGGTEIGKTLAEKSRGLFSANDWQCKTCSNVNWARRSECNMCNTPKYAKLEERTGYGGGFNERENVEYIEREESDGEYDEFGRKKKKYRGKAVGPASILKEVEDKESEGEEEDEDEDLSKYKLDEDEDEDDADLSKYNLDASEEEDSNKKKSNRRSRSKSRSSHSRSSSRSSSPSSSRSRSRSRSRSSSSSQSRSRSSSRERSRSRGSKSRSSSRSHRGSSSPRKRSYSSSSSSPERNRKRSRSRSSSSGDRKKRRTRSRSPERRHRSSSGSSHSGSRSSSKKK
UniProt Q96BR6: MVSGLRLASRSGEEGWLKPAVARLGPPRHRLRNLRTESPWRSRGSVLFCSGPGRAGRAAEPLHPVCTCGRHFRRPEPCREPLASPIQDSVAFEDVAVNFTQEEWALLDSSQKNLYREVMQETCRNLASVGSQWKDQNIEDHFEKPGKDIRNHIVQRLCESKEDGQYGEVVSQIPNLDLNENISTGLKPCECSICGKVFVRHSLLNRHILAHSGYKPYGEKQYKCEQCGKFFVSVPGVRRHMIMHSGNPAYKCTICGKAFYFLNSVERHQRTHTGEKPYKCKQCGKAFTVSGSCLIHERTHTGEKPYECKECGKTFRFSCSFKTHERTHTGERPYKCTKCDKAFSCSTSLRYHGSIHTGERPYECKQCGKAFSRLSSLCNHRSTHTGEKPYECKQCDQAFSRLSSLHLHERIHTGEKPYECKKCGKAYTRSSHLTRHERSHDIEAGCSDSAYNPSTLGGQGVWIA
UniProt P17026: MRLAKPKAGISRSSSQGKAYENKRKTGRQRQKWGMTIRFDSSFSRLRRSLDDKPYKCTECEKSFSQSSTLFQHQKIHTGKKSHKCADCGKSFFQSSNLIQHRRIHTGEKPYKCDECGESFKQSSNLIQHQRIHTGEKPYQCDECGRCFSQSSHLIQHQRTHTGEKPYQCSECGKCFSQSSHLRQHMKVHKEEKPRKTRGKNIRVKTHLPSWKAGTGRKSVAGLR
UniProt O43264: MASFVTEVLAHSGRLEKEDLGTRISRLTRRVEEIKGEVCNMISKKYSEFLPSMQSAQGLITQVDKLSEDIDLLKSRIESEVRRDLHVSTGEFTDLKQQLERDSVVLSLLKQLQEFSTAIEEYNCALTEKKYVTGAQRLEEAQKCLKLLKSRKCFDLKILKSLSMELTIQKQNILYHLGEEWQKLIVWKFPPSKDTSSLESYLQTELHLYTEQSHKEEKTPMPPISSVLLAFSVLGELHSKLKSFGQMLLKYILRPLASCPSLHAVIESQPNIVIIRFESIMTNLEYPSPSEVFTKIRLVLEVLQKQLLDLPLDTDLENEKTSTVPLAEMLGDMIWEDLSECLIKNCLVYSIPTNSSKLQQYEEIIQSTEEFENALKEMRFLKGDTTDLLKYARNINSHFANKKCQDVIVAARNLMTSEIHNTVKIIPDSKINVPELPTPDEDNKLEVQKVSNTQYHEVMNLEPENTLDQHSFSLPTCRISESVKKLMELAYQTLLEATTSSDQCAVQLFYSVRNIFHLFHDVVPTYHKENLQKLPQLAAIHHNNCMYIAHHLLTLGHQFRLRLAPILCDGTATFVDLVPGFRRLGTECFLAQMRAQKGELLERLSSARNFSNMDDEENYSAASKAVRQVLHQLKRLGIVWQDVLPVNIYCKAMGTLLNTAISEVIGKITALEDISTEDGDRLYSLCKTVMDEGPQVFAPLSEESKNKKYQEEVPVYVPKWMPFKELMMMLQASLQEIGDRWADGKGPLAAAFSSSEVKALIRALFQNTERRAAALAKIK
UniProt Q96AP4: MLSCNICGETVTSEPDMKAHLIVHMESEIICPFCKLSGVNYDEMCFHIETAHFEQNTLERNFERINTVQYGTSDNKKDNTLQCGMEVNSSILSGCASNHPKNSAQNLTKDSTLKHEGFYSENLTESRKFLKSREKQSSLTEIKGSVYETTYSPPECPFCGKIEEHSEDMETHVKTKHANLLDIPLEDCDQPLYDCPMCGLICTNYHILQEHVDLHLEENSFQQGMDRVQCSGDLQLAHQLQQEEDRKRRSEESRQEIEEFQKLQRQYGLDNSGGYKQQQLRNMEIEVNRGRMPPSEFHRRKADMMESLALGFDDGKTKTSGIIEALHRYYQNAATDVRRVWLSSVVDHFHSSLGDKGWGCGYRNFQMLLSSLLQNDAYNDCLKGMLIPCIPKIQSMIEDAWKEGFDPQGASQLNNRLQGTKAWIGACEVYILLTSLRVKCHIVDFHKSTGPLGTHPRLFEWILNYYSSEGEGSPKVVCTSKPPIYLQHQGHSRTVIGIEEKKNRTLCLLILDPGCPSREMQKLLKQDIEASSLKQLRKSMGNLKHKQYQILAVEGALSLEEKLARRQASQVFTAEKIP
UniProt Q8IZC7: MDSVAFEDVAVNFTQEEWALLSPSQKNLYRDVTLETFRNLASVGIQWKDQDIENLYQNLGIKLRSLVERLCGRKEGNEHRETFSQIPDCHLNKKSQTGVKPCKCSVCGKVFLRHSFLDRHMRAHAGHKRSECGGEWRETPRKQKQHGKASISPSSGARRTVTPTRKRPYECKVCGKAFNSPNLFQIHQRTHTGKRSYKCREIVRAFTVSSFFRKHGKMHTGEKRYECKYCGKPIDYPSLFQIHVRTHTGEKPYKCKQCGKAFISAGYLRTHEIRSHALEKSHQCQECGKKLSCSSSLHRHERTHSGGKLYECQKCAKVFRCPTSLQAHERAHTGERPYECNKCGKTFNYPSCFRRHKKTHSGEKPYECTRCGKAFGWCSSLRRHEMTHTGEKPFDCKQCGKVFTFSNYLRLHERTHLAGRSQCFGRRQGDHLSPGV
UniProt Q96K58: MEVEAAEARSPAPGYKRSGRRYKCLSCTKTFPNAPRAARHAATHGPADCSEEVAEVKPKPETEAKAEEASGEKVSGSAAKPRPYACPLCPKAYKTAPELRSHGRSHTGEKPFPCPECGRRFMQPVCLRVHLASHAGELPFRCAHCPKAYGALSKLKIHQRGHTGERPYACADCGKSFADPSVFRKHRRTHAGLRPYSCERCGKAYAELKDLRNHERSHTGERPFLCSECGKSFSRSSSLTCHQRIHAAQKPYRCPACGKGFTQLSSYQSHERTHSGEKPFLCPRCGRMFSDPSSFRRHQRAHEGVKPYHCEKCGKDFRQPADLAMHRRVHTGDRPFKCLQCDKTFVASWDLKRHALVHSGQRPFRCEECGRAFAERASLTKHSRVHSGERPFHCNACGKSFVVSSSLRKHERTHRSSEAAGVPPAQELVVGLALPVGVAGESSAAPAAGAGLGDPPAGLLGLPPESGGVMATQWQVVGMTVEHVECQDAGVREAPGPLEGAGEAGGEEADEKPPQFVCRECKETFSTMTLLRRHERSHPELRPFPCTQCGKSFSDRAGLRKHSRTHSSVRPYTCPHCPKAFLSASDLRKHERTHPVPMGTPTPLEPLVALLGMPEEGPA
UniProt Q6WRX3: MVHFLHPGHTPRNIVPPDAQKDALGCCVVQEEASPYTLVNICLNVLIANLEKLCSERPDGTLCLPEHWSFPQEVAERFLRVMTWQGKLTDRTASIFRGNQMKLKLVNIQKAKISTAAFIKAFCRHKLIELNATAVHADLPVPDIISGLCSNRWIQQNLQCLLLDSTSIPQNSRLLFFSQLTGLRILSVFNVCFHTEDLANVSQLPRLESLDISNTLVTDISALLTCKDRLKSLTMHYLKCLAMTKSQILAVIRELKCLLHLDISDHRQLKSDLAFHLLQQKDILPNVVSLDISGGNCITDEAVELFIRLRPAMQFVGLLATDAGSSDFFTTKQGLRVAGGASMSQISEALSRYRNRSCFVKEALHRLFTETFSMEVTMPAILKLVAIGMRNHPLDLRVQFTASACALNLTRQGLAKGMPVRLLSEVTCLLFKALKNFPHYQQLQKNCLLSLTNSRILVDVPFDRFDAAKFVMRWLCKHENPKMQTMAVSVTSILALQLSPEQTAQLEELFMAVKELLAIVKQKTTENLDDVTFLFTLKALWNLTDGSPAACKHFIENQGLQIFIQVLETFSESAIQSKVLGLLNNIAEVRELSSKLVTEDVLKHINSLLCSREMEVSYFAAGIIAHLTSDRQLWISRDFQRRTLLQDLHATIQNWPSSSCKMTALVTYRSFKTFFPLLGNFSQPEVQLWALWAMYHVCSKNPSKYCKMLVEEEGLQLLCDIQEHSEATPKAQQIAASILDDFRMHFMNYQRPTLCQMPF
UniProt Q8TCN5: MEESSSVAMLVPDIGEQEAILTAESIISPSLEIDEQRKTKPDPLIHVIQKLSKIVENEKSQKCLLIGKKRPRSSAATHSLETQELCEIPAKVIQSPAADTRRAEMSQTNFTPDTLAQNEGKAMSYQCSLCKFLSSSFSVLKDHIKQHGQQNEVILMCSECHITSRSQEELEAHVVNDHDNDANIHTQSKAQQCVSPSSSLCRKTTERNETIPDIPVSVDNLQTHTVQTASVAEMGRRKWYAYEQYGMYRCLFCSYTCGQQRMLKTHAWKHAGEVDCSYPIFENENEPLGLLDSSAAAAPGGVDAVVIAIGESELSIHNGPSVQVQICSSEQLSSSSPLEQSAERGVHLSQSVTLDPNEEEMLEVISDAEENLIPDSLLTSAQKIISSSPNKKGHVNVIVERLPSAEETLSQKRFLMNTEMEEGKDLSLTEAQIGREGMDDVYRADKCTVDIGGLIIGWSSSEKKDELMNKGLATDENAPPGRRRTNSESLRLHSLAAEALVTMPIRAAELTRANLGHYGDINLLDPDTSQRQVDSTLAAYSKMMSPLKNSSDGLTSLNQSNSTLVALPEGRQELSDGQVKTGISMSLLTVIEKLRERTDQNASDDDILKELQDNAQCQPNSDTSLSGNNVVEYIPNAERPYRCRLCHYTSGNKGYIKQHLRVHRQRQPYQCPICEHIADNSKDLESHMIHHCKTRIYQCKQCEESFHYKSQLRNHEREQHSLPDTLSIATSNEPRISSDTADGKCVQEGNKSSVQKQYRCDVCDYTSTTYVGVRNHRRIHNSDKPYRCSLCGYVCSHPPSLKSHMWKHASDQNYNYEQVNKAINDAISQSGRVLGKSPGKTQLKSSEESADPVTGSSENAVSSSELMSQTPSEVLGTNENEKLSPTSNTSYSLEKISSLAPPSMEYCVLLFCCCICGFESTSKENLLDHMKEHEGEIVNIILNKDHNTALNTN
UniProt Q9P1U0, whole entry, looked up: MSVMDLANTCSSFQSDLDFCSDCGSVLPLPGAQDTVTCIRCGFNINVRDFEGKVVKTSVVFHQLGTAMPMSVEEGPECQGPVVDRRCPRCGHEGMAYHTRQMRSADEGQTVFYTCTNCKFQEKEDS
UniProt Q96PM9: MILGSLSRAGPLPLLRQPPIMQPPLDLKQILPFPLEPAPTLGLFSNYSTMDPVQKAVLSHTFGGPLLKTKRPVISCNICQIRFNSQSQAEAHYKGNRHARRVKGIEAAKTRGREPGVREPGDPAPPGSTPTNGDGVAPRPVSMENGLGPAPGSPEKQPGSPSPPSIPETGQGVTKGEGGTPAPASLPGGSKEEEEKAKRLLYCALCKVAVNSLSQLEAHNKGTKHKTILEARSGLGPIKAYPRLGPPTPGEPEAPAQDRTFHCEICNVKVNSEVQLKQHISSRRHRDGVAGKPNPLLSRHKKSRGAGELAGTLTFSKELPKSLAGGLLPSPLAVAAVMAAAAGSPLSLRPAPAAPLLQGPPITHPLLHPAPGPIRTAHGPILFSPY
UniProt Q6ZN55: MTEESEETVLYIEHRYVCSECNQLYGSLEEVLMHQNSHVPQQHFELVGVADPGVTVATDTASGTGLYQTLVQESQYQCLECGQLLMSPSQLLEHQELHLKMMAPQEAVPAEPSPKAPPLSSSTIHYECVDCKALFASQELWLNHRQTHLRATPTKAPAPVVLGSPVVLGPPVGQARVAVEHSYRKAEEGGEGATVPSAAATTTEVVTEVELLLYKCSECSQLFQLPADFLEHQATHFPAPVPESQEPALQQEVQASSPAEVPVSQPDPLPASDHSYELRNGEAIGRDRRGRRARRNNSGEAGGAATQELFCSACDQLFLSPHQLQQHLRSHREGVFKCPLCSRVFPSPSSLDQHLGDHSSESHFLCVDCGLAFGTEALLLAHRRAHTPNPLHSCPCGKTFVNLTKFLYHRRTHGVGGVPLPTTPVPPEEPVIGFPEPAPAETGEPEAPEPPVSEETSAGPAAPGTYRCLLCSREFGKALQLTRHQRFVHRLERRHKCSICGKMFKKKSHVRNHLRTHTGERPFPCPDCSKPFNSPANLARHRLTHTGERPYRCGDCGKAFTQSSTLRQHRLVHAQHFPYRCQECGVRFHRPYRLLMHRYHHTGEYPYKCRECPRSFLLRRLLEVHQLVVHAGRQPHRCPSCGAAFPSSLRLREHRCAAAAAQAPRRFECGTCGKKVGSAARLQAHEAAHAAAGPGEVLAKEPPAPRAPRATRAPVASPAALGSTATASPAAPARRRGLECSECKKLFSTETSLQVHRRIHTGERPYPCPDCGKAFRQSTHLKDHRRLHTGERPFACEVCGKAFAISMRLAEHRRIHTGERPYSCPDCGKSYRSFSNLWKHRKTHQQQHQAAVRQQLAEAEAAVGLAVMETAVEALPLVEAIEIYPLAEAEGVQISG

Key:
Test in all cases: log2 fold change, soluble protein after heating vs DMSO (PISA); higher = thermal stabilisation; K562 lysate, 10 uM; active = over 0.2 and 3.5 SD of the protein, either way, in both replicates (recomputed)
[1] = compound: Cc1cn(-c2cc(NC(=O)c3ccc(C)c(Nc4nccc(-c5cccnc5)n4)c3)cc(C(F)(F)F)c2)cn1 [nilotinib]
Outline: (§1)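 The values are log-two fold changes in thermal stability compared with solvent controls and come from duplicates. They were obtained by TMTpro 16plex LC-MS/MS, with channel sums equalised, on the supernatant after 21,000xg for 90 min. That supernatant came from crude K562 extract at 1 mg/mL protein treated with 10 μM compound for 30 min, heated for 3 min across 48°C-58°C, pooled and brought to 0.5% NP-40 at 4°C.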

[2] = compound: Cc1nc(Nc2n[nH]c3c2CN(C(=O)N[C@H](CN(C)C)c2ccccc2)C3(C)C)c2sccc2n1
Outline: as §1

[3] = compound: Cc1nc(Nc2ncc(C(=O)Nc3c(C)cccc3Cl)s2)cc(N2CCN(CCO)CC2)n1 [dasatinib]
Outline: as §1

[4] = compound: Cc1ncc(-c2ccnc(Nc3ccc(S(C)(=O)=O)cc3)n2)n1C(C)C
Outline: as §1

[5] = compound: Cn1cc(-c2ccc3c(c2)CCN3C(=O)Cc2cccc(C(F)(F)F)c2)c2c(N)ncnc21
Outline: as §1

[6] = compound: Cn1cc(CNCC2CCN(c3ncc(C(=O)NO)cn3)CC2)c2ccccc21 [quisinostat]
Outline: as §1

[7] = compound: Cn1cncc1[C@@](N)(c1ccc(Cl)cc1)c1ccc2c(c1)c(-c1cccc(Cl)c1)cc(=O)n2C [tipifarnib]
Outline: as §1

[8] = compound: NC(=O)Nc1cc(-c2cccc(F)c2)sc1C(=O)N[C@H]1CCCNC1
Outline: as §1

[9] = compound: NC(=O)c1cnc(N[C@@H]2CCCC[C@@H]2N)nc1Nc1cccc(-n2nccn2)c1
Outline: as §1

[10] = compound: NC1(c2ccc(-c3nc4ccn5c(=O)[nH]nc5c4cc3-c3ccccc3)cc2)CCC1
Outline: as §1

Measured: log2 fold change

ZNF93 (UniProt P35789)
inactive: [1] -0.09 | [2] -0.101 | [3] -0.073 | [4] -0.039 | [5] -0.021 | [6] -0.104 | [7] -0.134 | [8] 0.044 | [9] -0.056 | [10] 0.091

ZRANB2 (UniProt O95218)
inactive: [1] 0.032 | [2] 0.038 | [3] -0.057 | [4] 0.058 | [5] -0.011 | [6] 0.024 | [7] 0.014 | [8] -0.071 | [9] -0.022 | [10] -0.021

ZNF669 (UniProt Q96BR6)
inactive: [1] -0.053 | [2] -0.111 | [3] -0.016 | [4] 0.097 | [5] 0.079 | [6] -0.05 | [7] 0.023 | [8] 0.156 | [9] 0.129 | [10] 0.09

ZNF22 (UniProt P17026)
inactive: [1] 0.068 | [2] 0.014 | [3] -0.063 | [4] 0.067 | [5] 0.085 | [6] 0.048 | [7] 0.069 | [8] -0.015 | [9] -0.011 | [10] 0.006

ZW10 (UniProt O43264)
inactive: [1] -0.034 | [2] -0.004 | [3] -0.049 | [4] 0.016 | [5] -0.001 | [6] -0.001 | [7] 0.005 | [8] 0.012 | [9] 0.02 | [10] -0.017

ZNF131 (UniProt P52739)
inactive: [1] -0.028 | [2] 0.129 | [3] -0.022 | [4] -0.034 | [5] -0.023 | [6] 0 | [7] 0.052 | [8] 0.025 | [9] 0.109 | [10] -0.046

ZNF217 (UniProt O75362)
inactive: [1] 0.06 | [2] 0.026 | [3] 0.001 | [4] 0.054 | [5] -0.057 | [6] -0.179 | [7] -0.086 | [8] 0.014 | [9] 0.021 | [10] -0.075

ZNF239 (UniProt Q16600)
inactive: [1] -0.02 | [2] 0.072 | [4] 0.077 | [6] -0.075 | [7] -0.043 | [8] -0.054 | [10] -0.019

ZUP1 (UniProt Q96AP4)
inactive: [3] -0.029 | [5] -0.074

ZNF670 (UniProt Q9BS34)
inactive: [1] -0.023 | [2] 0.011 | [4] 0.101 | [7] -0.103 | [10] 0.003

ZNRF2 (UniProt Q8NHG8)
inactive: [1] 0.079 | [2] 0.035 | [4] 0.095 | [6] -0.084 | [7] -0.147 | [8] 0 | [9] -0.145

ZNF101 (UniProt Q8IZC7)
inactive: [3] -0.077 | [5] -0.036 | [6] -0.035 | [8] -0.084 | [9] -0.045 | [10] 0.245

ZNF593 (UniProt O00488)
inactive: [3] 0.125 | [5] -0.042 | [6] 0.02 | [8] 0.063 | [9] 0.295 | [10] 0.03

ZNF668 isoform 2 (UniProt Q96K58)
inactive: [1] 0.062 | [2] -0.166 | [4] -0.044 | [6] 0.08 | [7] 0.038 | [8] 0.074 | [9] 0.049 | [10] 0.064

ZKSCAN3 (UniProt Q9BRR0)
inactive: [3] 0.125 | [5] -0.053 | [6] -0.027 | [8] 0.001 | [9] 0.247 | [10] -0.051

ZYG11A (UniProt Q6WRX3)
inactive: [1] 0.151 | [2] -0.077 | [4] -0.227 | [7] -0.124 | [9] 0.085 | [10] -0.068

ZNF552 (UniProt Q9H707)
inactive: [1] -0.076 | [2] 0.029 | [4] 0.043 | [7] -0.094

ZNHIT1 (UniProt O43257)
inactive: [1] -0.023 | [2] -0.057 | [4] -0.134 | [7] 0.034 | [10] -0.147

ZNF507 (UniProt Q8TCN5)
inactive: [1] 0.001 | [2] -0.075 | [3] -0.015 | [4] 0.003 | [5] -0.032 | [6] -0.022 | [7] 0.022 | [8] 0.039 | [10] -0.002

ZNF813 (UniProt Q6ZN06)
inactive: [1] 0.016 | [2] -0.086 | [3] -0.076 | [4] -0.031 | [5] 0.05 | [7] 0.1

ZNF444 (UniProt Q8N0Y2)
inactive: [3] 0.009 | [5] -0.065 | [6] -0.108 | [8] -0.063

ZNHIT3 (UniProt Q15649)
inactive: [3] -0.044 | [5] 0.001 | [6] 0.044 | [8] -0.053 | [9] -0.062 | [10] 0.032

Three consecutive records from above, for reference:
ZNHIT1 (UniProt O43257)
inactive: [1] -0.023 | [2] -0.057 | [4] -0.134 | [7] 0.034 | [10] -0.147

ZNF507 (UniProt Q8TCN5)
inactive: [1] 0.001 | [2] -0.075 | [3] -0.015 | [4] 0.003 | [5] -0.032 | [6] -0.022 | [7] 0.022 | [8] 0.039 | [10] -0.002

ZNF813 (UniProt Q6ZN06)
inactive: [1] 0.016 | [2] -0.086 | [3] -0.076 | [4] -0.031 | [5] 0.05 | [7] 0.1

Next entries

ZNRD1 (UniProt Q9P1U0)
inactive: [1] 0.14 | [2] 0.013 | [4] 0.066 | [7] -0.055 | [10] 0.028

ZGRF1 (UniProt Q86YA3)
inactive: [3] -0.008 | [5] -0.029 | [6] -0.017 | [8] 0.132

ZNF385A (UniProt Q96PM9)
inactive: [1] 0.012 | [2] 0.081 | [4] 0.029 | [6] 0.043 | [7] -0.094 | [8] 0.089 | [10] 0.086

ZNF324 (UniProt O75467)
inactive: [1] 0.065 | [2] -0.055 | [4] -0.159 | [6] 0.108 | [7] 0.155 | [8] -0.051 | [9] -0.011

ZNF146 (UniProt Q15072)
inactive: [3] -0.028 | [5] 0.188

ZNF562 (UniProt Q6V9R5)
inactive: [3] 0.1 | [5] -0.156

ZNF692 isoform 5 (UniProt Q9BU19)
inactive: [3] 0.312 | [5] -0.128

ZNF526 (UniProt Q8TF50)
inactive: [1] -0.06 | [2] -0.02 | [3] 0.019 | [4] -0.027 | [5] -0.135 | [7] 0.028 | [10] -0.166

ZNF574 isoform 2 (UniProt Q6ZN55)
inactive: [1] -0.107 | [2] 0.02 | [4] -0.034 | [6] -0.232 | [7] 0.019 | [8] 0.235 | [9] -0.054 | [10] -0.048

ZHX3 (UniProt Q9H4I2)
inactive: [1] 0.055 | [2] 0.045 | [3] -0.128 | [4] 0.024 | [5] 0.136 | [7] 0.068 | [9] -0.048

ZNF746 isoform 2 (UniProt Q6NUN9)
inactive: [1] -0.03 | [2] -0.142 | [4] -0.083 | [7] 0.06

ZNF654, A0A1B0GWA0
inactive: [1] 0.047 | [2] -0.071 | [4] 0.112 | [6] -0.114 | [7] -0.191 | [8] 0.109 | [9] -0.001 | [10] 0.068

ZNF816 (UniProt Q0VGE8)
inactive: [1] -0.194 | [2] 0.094 | [4] -0.141 | [6] 0.175 | [7] 0.082 | [8] 0.268

ZNF74 isoform 5 (UniProt Q16587)
inactive: [1] 0.043 | [2] 0.025 | [3] 0.133 | [4] -0.073 | [5] -0.047 | [7] 0.063 | [9] 0.008 | [10] 0.018

ZNF691 (UniProt Q5VV52)
inactive: [3] -0.002 | [5] -0.042 | [6] 0.145 | [8] 0.014 | [9] -0.017

ZNF440 (UniProt Q8IYI8)
inactive: [1] 0.112 | [2] -0.112 | [4] -0.031 | [7] 0.109

ZNF326 (UniProt Q5BKZ1)
inactive: [1] -0.053 | [2] -0.002 | [3] -0.021 | [4] -0.047 | [5] -0.005 | [6] 0.007 | [7] 0.084 | [8] -0.008 | [10] 0.06

ZNF280B (UniProt Q86YH2)
inactive: [1] 0.006 | [2] 0.071 | [4] -0.048 | [6] -0.013 | [7] -0.011 | [8] 0.004 | [10] -0.019

ZNF808 (UniProt Q8N4W9)
inactive: [3] -0.165 | [5] 0.035 | [6] -0.121 | [8] 0.173
